{"source": "patent US20020052390A1", "about": "“METHODS AND MATERIALS FOR TREATING AND PREVENTING INFLAMMATION OF MUCOSAL TISSUE” (priority 1997, published 2002)", "assay_type_in_all_cases": "in vivo, human", "key": {"[1]": {"test_system": "patient with asthma symptoms", "test": "Itraconazole nasal irrigation in an asthma patient, pulmonary function (Example 8)", "conditions": "since stopping all steroid therapy, on itraconazole irrigations", "method": "Sputum and nasal-paranasal mucus samples were collected and analyzed.\nThe concentration of the itraconazole solution was about 100 mg per liter. After a few weeks, the patient took their last course of systemic steroids. About two months after stopping the systemic steroids, the patient also stopped using the topical steroids as well as the bronchodilator."}, "[2]": {"test_system": "asthma patients", "test": "Inhaled itraconazole (powder inhaler or nebulizer) in asthma patients (Example 8)"}, "[3]": {"test_system": "non-invasive fungus-induced rhinosinusitis patients", "test": "Patient data collected during a one week period (amphotericin B nasal irrigations)", "conditions": "itraconazole solution twice a day, after seven days", "text": "In addition to patient interviewing, CT scan analysis, visual examination, and fungal culture analysis, two types of evaluations were used to score the success of the treatment: an endoscopic evaluation and a patient symptom evaluation. These evaluations were scored as follows:\nOnly previously seen patients that were instructed to use the antifungal amphotericin B nasal irrigations were entered into this study.\nDuring a one week period, twenty patients returned to the physician's office (Table II). The average age of the returning patients was 47 years (range 16-74 years). The patients were using the amphotericin B irrigations for an average duration of about six months (range 1-16 months). […] In addition, some patients were using topical and systemic steroid therapy. Further, some patients were using an antibiotic nasal irrigation in addition to the antifungal irrigations. The antibacterial solution contained 80 mg gentamicin per L saline (Wilson's solution). Some patients mixed the antibacterial solution with the antifungal solution and then performed the nasal irrigations while others used each solution separately in a sequential manner. Some patients also had other diseases including asthma (15 of the 20 patients) and colitis (2 of the 20 patients)."}}, "note": "“Also recorded” adds a separate entry of the source. At least one structure is not confirmed: it was looked up by name or label, or the drawing left a doubt."}
{"smiles": "CCC(C)n1ncn(-c2ccc(N3CCN(c4ccc(OCC5COC(Cn6cncn6)(c6ccc(Cl)cc6Cl)O5)cc4)CC3)cc2)c1=O", "note": "(stereo not drawn) [Itraconazole, itraconazole]", "values": [{"measurement": "patient's asthma symptoms", "setting": "[1]", "value": "improved dramatically"}, {"measurement": "patient's condition", "setting": "[2]; about 200 μg of pure itraconazole per day, adapted TURBOHALER, after about 2 weeks", "value": "markedly improved"}, {"measurement": "nasal polyp", "setting": "[2]; about 400 μg of pure itraconazole per day, powdered inhaler, by the second week of treatment", "value": "noticeably reduced in viability"}, {"measurement": "asthma status", "setting": "[2]; about 400 μg of pure itraconazole per day, powdered inhaler, four weeks", "value": "asymptomatic"}, {"measurement": "asthma and rhinosinusitis conditions (symptom scores)", "setting": "[2]; about two mL per day of about 10 mg itraconazole per mL PEG-400 in a nebulizer, after about two weeks", "value": "improvement"}, {"measurement": "patient-reported feeling after switch from amphotericin B to itraconazole irrigations", "setting": "[3]", "value": "feeling better; also recorded: Felt better"}]}
